Laboratory results: article doi:10.1101/2025.10.10.681657 (bioRxiv, 2025)

Legend:
[1] = molecular target: T1, Snu13 (UniProt P39990); assay: MST; settings: MST: 10 mM HEPES pH 7.4, 150 mM NaCl, 0.005% Tween 20, 50 nM RNA (protein buffer, mixed 1:1 with RNA), label: 5'-Cy5
T1 sequence (looked up, limits assumed): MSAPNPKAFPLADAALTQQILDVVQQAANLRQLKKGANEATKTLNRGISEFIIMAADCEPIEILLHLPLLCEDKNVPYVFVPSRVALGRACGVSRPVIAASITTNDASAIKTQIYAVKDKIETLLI

[2] = molecular target: T1, Snu13; assay: EMSA; settings: IC50 of compound 22 (0.5-20 uM) against 1 uM Snu13 complex; EMSA: 20 mM Tris-Cl pH 7.6, 150 mM NaCl, 0.1% Triton X-100, 2 mM DTT, room temperature, 8% native PAGE; RNA folded in 11.25 mM K-phosphate pH 7.0, 310 mM KCl, 5 mM EDTA; label: 5'-Cy5

GGCCUUAUGCACGGGAAAUACGCAUAUCAGUGAGGAUUCGUCCGAGAUUGUGUUUUUGCUGGUGUAAAUCAGCAGUUCCCCUGCAUAAGGCU [U4/U6 snRNA 92 nt construct]
Kd ([1]; 10 uM compound 22): 0.806 µM
Kd ([1]; 10 uM neomycin): 0.207 µM
IC50 [2]: 3.2 µM

For at least one entry, the source does not settle the construct or the ends of the probe. Protein sequences can lack the tags named with them.
